Reference: paper PMC11298430, “Synthesis and In vitro evaluation of bichalcones as novel anti-toxoplasma agents” (Frontiers in Chemistry, 2024)

Test system: human fibroblasts Hs27
Assay: MTT cytotoxicity assay
Format: cell-based
Settings: ratio of CC50/IC50 (Hs27 / T. gondii)
Procedure: The MTT [3-(4, 5-dimethylthiazole-2-yl)-2, 5-diphenyltetrazolium bromide] reduction assay ([Mosmann, 1983]) was used to quantify the cytotoxic effects of the examined chalcones and bichalcones on the host cells. To avoid edge effects, only the inner 60 wells of each plate were used. Briefly, 5 × 10^4 Hs27 cells per well were cultured in 96-well microtiter plates in Iscove’s modified Dulbecco’s medium (IMDM, Gibco–Thermo Fisher Scientific, Braunschweig, Germany, #12440053) with a volume of 100 µL per well and incubated overnight at 37°C until confluence. Different concentrations of the compounds (ranging from 200 μM to 0.09 µM) were then added to the Hs27 cells. Controls included untreated Hs27 cells treated with DMSO, and cells treated with staurosporine (0.031, 0.062, 0.125, 0.25, 0.5, 1 µM) (Merck, Darmstadt, Germany, #S4400), a natural product known for its potent activity as apoptosis inducer ([Belmokhtar et al., 2001]). […] Optical density (O.D.) was measured at 570 nm using a microplate reader (TECAN Sunrise, Männedorf, Switzerland). The half-maximal cytotoxic concentration (CC50) values of each compound against Hs27 cells relative to DMSO-treated samples were determined using GraphPad PRISM™ statistical software (version 9.5.1; San Diego, CA). In addition, the selectivity index (SI) of each compound was calculated from the ratio of CC50/IC50.

## COc1ccc(/C=C/C(=O)c2c(O)cc(OC)cc2OC)cc1 [1ba]
  SI: >25
